Measurements: article PMC10052876
These are yes or no findings as the source states them, for the method shown. For part of these data: Binding seen in cells or lysates may run through a third protein. Some binding calls cover weakened binding; strength is not graded here.

Sequences of proteins named here, by UniProt entry; tags and fusion partners are left off. Residues count along the entry.
UniProt O60313, residues 88-960: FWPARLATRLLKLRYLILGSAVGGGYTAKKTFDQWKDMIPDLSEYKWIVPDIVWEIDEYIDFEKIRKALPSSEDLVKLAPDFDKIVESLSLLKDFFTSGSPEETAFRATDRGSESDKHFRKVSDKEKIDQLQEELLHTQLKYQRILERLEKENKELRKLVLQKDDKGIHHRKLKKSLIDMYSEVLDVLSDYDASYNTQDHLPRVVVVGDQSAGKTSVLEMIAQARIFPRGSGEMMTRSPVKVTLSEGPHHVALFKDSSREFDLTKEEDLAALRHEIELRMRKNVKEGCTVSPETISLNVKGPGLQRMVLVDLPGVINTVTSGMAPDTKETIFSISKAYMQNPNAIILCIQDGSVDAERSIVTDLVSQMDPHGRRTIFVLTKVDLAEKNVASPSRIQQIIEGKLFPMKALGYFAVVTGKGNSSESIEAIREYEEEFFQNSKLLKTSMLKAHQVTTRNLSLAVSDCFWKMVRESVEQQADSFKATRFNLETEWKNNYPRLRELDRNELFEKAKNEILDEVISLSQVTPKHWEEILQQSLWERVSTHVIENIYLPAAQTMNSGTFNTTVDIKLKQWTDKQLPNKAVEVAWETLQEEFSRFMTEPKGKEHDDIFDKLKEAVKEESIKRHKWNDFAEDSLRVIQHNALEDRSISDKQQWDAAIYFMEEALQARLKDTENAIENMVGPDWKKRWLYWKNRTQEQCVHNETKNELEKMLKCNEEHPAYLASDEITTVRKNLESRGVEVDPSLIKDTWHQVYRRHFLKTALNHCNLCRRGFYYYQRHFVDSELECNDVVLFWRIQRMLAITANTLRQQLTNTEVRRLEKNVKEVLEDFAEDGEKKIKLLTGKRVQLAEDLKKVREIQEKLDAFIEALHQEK

T1: MFN2 (human (endogenous in fibroblasts)), O95140
T1 chain: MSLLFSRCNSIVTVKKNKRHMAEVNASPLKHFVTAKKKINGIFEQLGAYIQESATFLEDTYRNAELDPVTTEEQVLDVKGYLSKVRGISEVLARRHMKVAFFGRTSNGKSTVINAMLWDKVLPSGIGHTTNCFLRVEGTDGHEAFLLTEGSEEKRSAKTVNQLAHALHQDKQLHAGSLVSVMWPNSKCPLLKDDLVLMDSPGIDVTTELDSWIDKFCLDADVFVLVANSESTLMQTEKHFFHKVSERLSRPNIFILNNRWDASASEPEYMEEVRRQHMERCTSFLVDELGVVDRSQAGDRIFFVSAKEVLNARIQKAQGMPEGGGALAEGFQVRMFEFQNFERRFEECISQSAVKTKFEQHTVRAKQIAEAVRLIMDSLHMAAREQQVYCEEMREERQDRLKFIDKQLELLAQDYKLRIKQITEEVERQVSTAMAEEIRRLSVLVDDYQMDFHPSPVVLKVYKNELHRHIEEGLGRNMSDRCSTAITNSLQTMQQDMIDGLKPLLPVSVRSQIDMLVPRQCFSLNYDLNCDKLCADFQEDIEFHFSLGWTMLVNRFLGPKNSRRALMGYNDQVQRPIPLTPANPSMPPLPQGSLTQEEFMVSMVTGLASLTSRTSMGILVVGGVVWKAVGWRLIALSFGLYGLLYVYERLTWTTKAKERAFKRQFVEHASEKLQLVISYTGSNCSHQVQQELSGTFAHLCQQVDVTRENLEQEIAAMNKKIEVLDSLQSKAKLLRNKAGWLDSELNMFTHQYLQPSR

T2: SLC25A46 (human (endogenous in fibroblasts)), Q96AG3
T2 chain: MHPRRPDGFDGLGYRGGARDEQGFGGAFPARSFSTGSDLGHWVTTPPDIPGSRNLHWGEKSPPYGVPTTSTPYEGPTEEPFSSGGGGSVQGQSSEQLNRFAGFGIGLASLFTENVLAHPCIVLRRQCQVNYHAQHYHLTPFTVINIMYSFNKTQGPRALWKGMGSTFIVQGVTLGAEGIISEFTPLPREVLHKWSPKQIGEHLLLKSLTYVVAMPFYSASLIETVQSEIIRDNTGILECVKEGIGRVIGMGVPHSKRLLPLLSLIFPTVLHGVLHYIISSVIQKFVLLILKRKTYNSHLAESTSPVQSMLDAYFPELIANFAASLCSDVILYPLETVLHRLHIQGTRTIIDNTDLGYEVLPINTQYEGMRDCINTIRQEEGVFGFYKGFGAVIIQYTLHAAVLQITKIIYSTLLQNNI

B1: MFN2, O95140 1-757 (protein)
chain: T1 chain
B2: SLC25A46 (protein, UniProt Q96AG3 1-418)
chain: T2 chain

What was measured:
[1] = target: T1, MFN2 (human (endogenous in …)); test: native gel or EMSA; BN-PAGE (6-15% gradient) of 1% digitonin extracts of crude mitochondria from control human fibroblasts, immunoblot; also two-dimensional BN-PAGE/SDS-PAGE; settings: remark: other sources report otherwise
[2] = target: T2, SLC25A46 (human (endogenous in …)); test: co-IP; endogenous SLC25A46 or OPA1 immunoprecipitated (antibody cross-linked to Dynabeads Protein A) from control human fibroblast crude mitochondria cross-linked with 1 mM DSP, extracted in 10 mM Tris-HCl pH 7.5, 150 mM NaCl, 1% DDM; overnight at 4°C; immunoblot; settings: remark: other sources report otherwise
[3] = target: OPA1 (human (endogenous in fibroblasts)) (UniProt O60313); test: as above

Row | Binder | binding [1] | binding [2] | binding [3]
1 | B1 | binds | binds | 
2 | B2 |  |  | binds
